Consider 27 molecules from PubChem BioAssay AID248 (DTP/NCI, 2004).

This assay concerns L1210 leukemia ip in BDF1 mice, survival T/C. Put plainly: NCI In Vivo Anticancer Drug Screen. Data for tumor model L1210 Leukemia (intraperitoneal) in B6D2F1 (BDF1) mice. To be noted: T/C endpoint: mean survival time, higher T/C = longer survival.
[1] abbreviates: dose: 100.0 mg/kg/injection, schedule: Q04DX002 (ip), vehicle: saline with Tween-80.
[2] abbreviates: dose: 200.0 mg/kg/injection, schedule: Q04DX002 (ip), vehicle: saline with Tween-80.
Setting [3] is: dose: 400.0 mg/kg/injection, schedule: Q04DX002 (ip), vehicle: saline with Tween-80.
The mark [4] stands for this setting: dose: 400.0 mg/kg/injection, schedule: Q04DX003 (ip), vehicle: Klucel (hydroxypropylcellulose) (HPC).
Where [5] appears, read: dose: 400.0 mg/kg/injection, schedule: Q04DX003 (ip), vehicle: saline.
Where [6] appears, read: dose: 100.0 mg/kg/injection, schedule: Q01DX009 (ip), vehicle: saline with Tween-80.
[7] abbreviates: dose: 200.0 mg/kg/injection, schedule: Q01DX009 (ip), vehicle: saline with Tween-80.
Where [8] appears, read: dose: 400.0 mg/kg/injection, schedule: Q01DX009 (ip), vehicle: saline with Tween-80.
[9] abbreviates: dose: 200.0 mg/kg/injection, schedule: Q01DX009 (ip), vehicle: Klucel (hydroxypropylcellulose) (HPC).
[10] abbreviates: dose: 400.0 mg/kg/injection, schedule: Q01DX001 (ip), vehicle: saline.
[11] abbreviates: dose: 100.0 mg/kg/injection, schedule: Q01DX001 (ip), vehicle: saline.
Where [12] appears, read: dose: 200.0 mg/kg/injection, schedule: Q01DX001 (ip), vehicle: saline.
[13] abbreviates: dose: 100.0 mg/kg/injection, schedule: Q04DX003 (ip), vehicle: Klucel (hydroxypropylcellulose) (HPC).
Setting [14] is: dose: 200.0 mg/kg/injection, schedule: Q04DX003 (ip), vehicle: Klucel (hydroxypropylcellulose) (HPC).

The list shows only some results of the screen, not a fair sample: it is rich in T/C values a quarter to a half above the control, in often repeated tests (any T/C) and in doses without a T/C. Other doses and runs of a compound stand elsewhere. T/C is the treated group as % of the vehicle group. Some entries give survivors of the animals treated and no T/C: the source holds a T/C of zero for them, seemingly a mark for toxic or unscored doses. Some doses without a T/C left all or most animals alive at the check, yet need not have been tolerated: the source hardly ever lists a survival T/C far under the control, and the zero likely stands for such cases as well. Counts of survivors are from the toxicity check (mostly the fifth day) where no day follows; animals may have died later. Schedules are NCI's codes, read here as Q, the interval in days (D) or hours (H), X, the number of doses. Some schedules carry Z or #; the key to these is not given. Some entries were tested several times; their values stand side by side, smallest first. Where survival is the endpoint, the PubChem record calls one and a half times the control and up active, and a quarter to a half above the control has no call in these data; cut-offs in other NCI protocols can differ. Some T/C values carry the count of animals alive at the toxicity check (mostly the fifth day); without a count, all were alive then.

On to `CCC[CH2][Sn]([CH2]CC#N)([CH2]CCC)[CH2]CCC`, for which the survivor count under setting [1] is reported as 0 of 3; the survivor count (dose: 100.0 mg/kg/injection, schedule: Q04DX002 (ip), vehicle: saline) was 0 of 3; the survivor count under setting [2] is reported as 0 of 3; the survivor count under setting [3] is reported as 0 of 3.

For the molecule `C#CCCCCCCC#CCCCCCCC#C`, the survivor count (dose: 400.0 mg/kg/injection, schedule: Q04DX003 (ip), vehicle: acetone) is 1 of 6.

As for `O=S(c1ccccc1)C1CCCCC1O` (configuration not stated), the survivor count under setting [3] is on record as 3 of 3.

For `CCC1CCC(Cc2ccncc2)CC1` (configuration not stated), under setting [4], the survivor count is recorded as 6 of 6.

For the molecule `O=[N+]([O-])c1ccc(/C=C/c2ncc[nH]2)o1`, the survivor count under setting [4] is listed as 3 of 6.

For `NCCCC1C(CN)C2CC1C1C3CCC(C3)C21` (configuration not stated), the survivor count is, setting by setting: (dose: 50.0 mg/kg/injection, schedule: Q04DX003 (ip), vehicle: saline) 3 of 6; (dose: 100.0 mg/kg/injection, schedule: Q04DX003 (ip), vehicle: saline) 2 of 6; (dose: 200.0 mg/kg/injection, schedule: Q04DX003 (ip), vehicle: saline) 0 of 6; under setting [5], 0 of 6.

For the molecule `COc1ccc(OC)c(C(Nc2ccc3cn[nH]c3c2)P(=O)(c2ccccc2)c2ccccc2)c1` (configuration not stated), the survivor count is, setting by setting: under setting [6], 3 of 3; under setting [7], 3 of 3; under setting [8], 3 of 3; under setting [3], 3 of 3.

Take `CCCCCCOC(N)=O`: the survivor count under setting [4] is given as 3 of 6.

Regarding `OCCNc1nc2ccc(Br)cc2c2ccccc12`, the survivor count runs as follows: under setting [9], 6 of 6; (dose: 400.0 mg/kg/injection, schedule: Q01DX009 (ip), vehicle: Klucel (hydroxypropylcellulose) (HPC)) 2 of 6.

Regarding `BrC1CCCCN1Cc1cc2ccccc2cc1CN1CCCCC1Br` (configuration not stated), the survivor count runs as follows: (dose: 37.5 mg/kg/injection, schedule: Q01DX001 (ip), vehicle: other) 0 of 6; (dose: 75.0 mg/kg/injection, schedule: Q01DX001 (ip), vehicle: other) 0 of 6; (dose: 150.0 mg/kg/injection, schedule: Q01DX001 (ip), vehicle: other) 2 of 6; (dose: 300.0 mg/kg/injection, schedule: Q01DX001 (ip), vehicle: other) 0 of 6.

On to `CC(C)c1cc(C(C)C)c(C(=O)Oc2c(Br)cc(Br)cc2Br)c(C(C)C)c1`, for which the survivor count under setting [8] is 5 of 6.

As to `C#CC(C)(O)CC(C)C` (configuration not stated), the survivor count under setting [10] is 1 of 4.

For `CN=C(c1ccc(NC(=O)c2ccc(C(=O)Nc3ccc(C(=NC)N(C)C)cc3)c(Cl)c2)cc1)N(C)C`, the survivor count is 4 of 6 (dose: 3.75 mg/kg/injection, schedule: Q01DX Z (ip), vehicle: saline); 0 of 6 (dose: 7.5 mg/kg/injection, schedule: Q01DX Z (ip), vehicle: saline); 0 of 6 (dose: 15.0 mg/kg/injection, schedule: Q01DX Z (ip), vehicle: saline); 0 of 6 (dose: 30.0 mg/kg/injection, schedule: Q01DX Z (ip), vehicle: saline); 0 of 6 (dose: 60.0 mg/kg/injection, schedule: Q01DX Z (ip), vehicle: saline); 0 of 6 (dose: 120.0 mg/kg/injection, schedule: Q01DX Z (ip), vehicle: saline).

`CC(C)=CC1CC(C)C2(CCC3(C)CC4C(C(=O)CC4(C)O)/C(C=O)=C\CC32)O1` (configuration not stated): the survivor count runs as follows: under setting [11], 0 of 6; under setting [12], 0 of 6; under setting [10], 0 of 6.

For `O=C(NC(C(=O)SC1=NC=NC2=NC=NC21)C(SC1=NC=NC2=NC=NC21)c1cccnc1)c1ccccc1` (configuration not stated), the T/C is 143 % of control (dose: 11.0 mg/kg/injection, schedule: Q01DX Z (ip), vehicle: saline); 134 % of control (dose: 17.0 mg/kg/injection, schedule: Q01DX Z (ip), vehicle: saline); 148 % of control (dose: 25.0 mg/kg/injection, schedule: Q01DX Z (ip), vehicle: saline).

On to `Nc1ccc(OCCNS(=O)(=O)c2cccc(S(=O)(=O)F)c2)c(Cl)c1`, for which the survivor count (dose: 200.0 mg/kg/injection, schedule: Q01DX009 (ip), vehicle: saline) was 3 of 6 and the survivor count under setting [5] is 4 of 6.

Take `O=C(O)C(O)(C1CCCCC1)C1CCC2CCC3CCCC1C32` (configuration not stated): the survivor count is listed as 6 of 6 under setting [7] and 6 of 6 under setting [8].

For `ClCc1ccc(CCl)c(Cl)c1`, the survivor count is on record as 2 of 6 under setting [13], 3 of 6 under setting [14] and 1 of 6 under setting [4].

With `CCCCCCCCN(C)N=Nc1ccccc1C(=O)O`, the survivor count by setting is: (dose: 50.0 mg/kg/injection, schedule: Q04DX003 (ip), vehicle: Klucel (hydroxypropylcellulose) (HPC)) 6 of 6; under setting [13], 6 of 6; under setting [9], 6 of 6; under setting [14], 6 of 6; (dose: 300.0 mg/kg/injection, schedule: Q01DX009 (ip), vehicle: Klucel (hydroxypropylcellulose) (HPC)) 2 of 6; under setting [4], 6 of 6. The T/C is, setting by setting: (dose: 100.0 mg/kg/injection, schedule: Q01DX009 (ip), vehicle: Klucel (hydroxypropylcellulose) (HPC), evaluated on day 20) 117 % of control; (dose: 100.0 mg/kg/injection, schedule: Q01DX009 (ip), vehicle: Klucel (hydroxypropylcellulose) (HPC), evaluated on day 30) 122, 127 [5 of 6 alive], 129 % of control; under setting [9], 135 % of control.

With `CSc1cccc(Cl)c1`, the survivor count (dose: 300.0 mg/kg/injection, schedule: Q01DX001 (ip), vehicle: saline) was 3 of 6.

Take `CC(=O)Nc1ccc(/C=N/NC(=O)CNC(=O)Nc2cccc(Cl)c2)cc1`: the survivor count under setting [6] was 3 of 3 and the survivor count under setting [7] is listed as 3 of 3.

Turning to `CN1C(=O)CC(C(=O)c2ccc(N3C(=O)C=CC3=O)cc2)(c2ccccc2)C1=O` (configuration not stated), the survivor count under setting [1] was 0 of 3 and 1 of 3; the survivor count under setting [2] is 0 of 3; the survivor count under setting [3] is given as 0 of 3.

In the case of `O=C(Nc1cccc(C(F)(F)F)c1)Nc1c(Oc2ccc(Cl)c(Cl)c2)ccc(Cl)c1S(=O)(=O)O`, the survivor count under setting [5] is given as 0 of 6.

Take `CCCCOC(=O)C1=NC=NC1=[N+]=[N-]`: the survivor count reads like this: under setting [11], 0 of 6; under setting [12], 0 of 6; under setting [10], 0 of 6.

Turning to `O=c1[nH]cc(S)c(=O)[nH]1`, the survivor count is, setting by setting: (dose: 200.0 mg/kg/injection, schedule: Q01DX015 (ip), vehicle: carboxymethylcellulose (CMC)) 3 of 6; (dose: 400.0 mg/kg/injection, schedule: Q01DX001 (ip), vehicle: carboxymethylcellulose (CMC)) 0 of 4; (dose: 400.0 mg/kg/injection, schedule: Q01DX015 (ip), vehicle: carboxymethylcellulose (CMC)) 0 of 6; (dose: 800.0 mg/kg/injection, schedule: Q01DX001 (ip), vehicle: carboxymethylcellulose (CMC)) 0 of 4; (dose: 800.0 mg/kg/injection, schedule: Q01DX015 (ip), vehicle: carboxymethylcellulose (CMC)) 0 of 6; (dose: 1600.0 mg/kg/injection, schedule: Q01DX001 (ip), vehicle: carboxymethylcellulose (CMC)) 0 of 4.

For `COc1ncccn1`, the survivor count by setting is: (dose: 150.0 mg/kg/injection, schedule: Q01DX009 (ip), vehicle: saline) 0 of 6; (dose: 300.0 mg/kg/injection, schedule: Q01DX009 (ip), vehicle: saline) 0 of 6.

For the molecule `C=C1CC(c2ccc(S(=O)(=O)N3CCCC3)cc2)OC1=O` (configuration not stated), the survivor count (dose: 400.0 mg/kg/injection, schedule: Q04DX002 (ip), vehicle: Klucel (hydroxypropylcellulose) (HPC)) was 1 of 3.
